Record: PubChem BioAssay AID1224828 (NIAID, 2016)

- Purpose: 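Regulators linking TLR4 signalling to p65 nuclear translocation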 (primary screen)
- Cells: mouse RAW264.7 G9 macrophage reporter cells (GFP-p65, Tnf promoter-mCherry)
- Knock-down reagent: siRNA pool against mouse genes, 100 nM
- Time to read-out: 2 days siRNA transfection, then 40 min LPS before fixation
- Challenge: LPS (Salmonella minnesota R595) at 10 ng/ml
- Measurement: 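Imaged p65 nuclear translocation ratio, normalised to the plate median, converted to robust z-scores and averaged across two replicates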
- Direction: p65 translocation robust z-score: higher = more nuclear NF-kappaB p65 after LPS than the plate median; nuclear/cytoplasmic p65 ratio: higher = more nuclear NF-kappaB p65
- Active means: 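Active if robust z is above 3.3 (negative regulators) or below -1.56, the Tlr4 control median (positive regulators); activity score 50 or more; control wells not called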
- Calls: active = hit (p65 shift raised or lowered); inactive = no clear change
The deposit covers about 17,000 reagents; shown is a random part of them. 762 of them (4.5%) were called active. 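Active calls include both raised and lowered p65 entry, mostly lowered; wells with fewer than 50 cells lack a z-score.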 Raw values vary from plate to plate and are shown uncorrected.

For Tfap2b, how do the results read?
p65 translocation robust z-score: -0.18; nuclear/cytoplasmic p65 ratio, rep 1: 1.43; nuclear/cytoplasmic p65 ratio, rep 2: 1.56; low cell count flag: enough cells to score; call: inactive

Which result is listed for Krt15?
p65 translocation robust z-score: -0.13; nuclear/cytoplasmic p65 ratio, rep 1: 1.59; nuclear/cytoplasmic p65 ratio, rep 2: 1.25; low cell count flag: enough cells to score; call: inactive

What did the screen give for Elfn1?
p65 translocation robust z-score: -0.84; nuclear/cytoplasmic p65 ratio, rep 1: 1.28; nuclear/cytoplasmic p65 ratio, rep 2: 1.4; low cell count flag: enough cells to score; call: inactive

How did the screen score Mrpl27?
p65 translocation robust z-score: 0.32; nuclear/cytoplasmic p65 ratio, rep 1: 1.9; nuclear/cytoplasmic p65 ratio, rep 2: 1.58; low cell count flag: enough cells to score; call: inactive

How did the screen score Pan2?
p65 translocation robust z-score: 0.42; nuclear/cytoplasmic p65 ratio, rep 1: 1.6; nuclear/cytoplasmic p65 ratio, rep 2: 1.53; low cell count flag: enough cells to score; call: inactive

For Synpo2l, what was measured?
p65 translocation robust z-score: 0.61; nuclear/cytoplasmic p65 ratio, rep 1: 1.49; nuclear/cytoplasmic p65 ratio, rep 2: 1.22; low cell count flag: enough cells to score; call: inactive

With Txndc8, what does the deposit list?
nuclear/cytoplasmic p65 ratio, rep 1: 1.36; nuclear/cytoplasmic p65 ratio, rep 2: 2.1; low cell count flag: fewer than 50 cells per well; well left out of scoring; call: inactive

For Adck2, how do the results read?
p65 translocation robust z-score: -0.03; nuclear/cytoplasmic p65 ratio, rep 1: 1.69; nuclear/cytoplasmic p65 ratio, rep 2: 1.38; low cell count flag: enough cells to score; call: inactive

For Prkx, how do the results read?
p65 translocation robust z-score: 0.93; nuclear/cytoplasmic p65 ratio, rep 1: 1.82; nuclear/cytoplasmic p65 ratio, rep 2: 1.51; low cell count flag: enough cells to score; call: inactive

Records listed so far whose gene name starts with T or t (2):
Tfap2b | p65 translocation robust z-score: -0.18; nuclear/cytoplasmic p65 ratio, rep 1: 1.43; nuclear/cytoplasmic p65 ratio, rep 2: 1.56; low cell count flag: enough cells to score; call: inactive
Txndc8 | nuclear/cytoplasmic p65 ratio, rep 1: 1.36; nuclear/cytoplasmic p65 ratio, rep 2: 2.1; low cell count flag: fewer than 50 cells per well; well left out of scoring; call: inactive

The listing continues:
For Tufm, what does the deposit list?
p65 translocation robust z-score: -0.03; nuclear/cytoplasmic p65 ratio, rep 1: 1.25; nuclear/cytoplasmic p65 ratio, rep 2: 1.41; low cell count flag: enough cells to score; call: inactive

What did the screen give for Zfp462?
p65 translocation robust z-score: 0.79; nuclear/cytoplasmic p65 ratio, rep 1: 1.41; nuclear/cytoplasmic p65 ratio, rep 2: 1.34; low cell count flag: enough cells to score; call: inactive

What is on record for Pcsk6?
p65 translocation robust z-score: 1.76; nuclear/cytoplasmic p65 ratio, rep 1: 1.69; nuclear/cytoplasmic p65 ratio, rep 2: 1.64; low cell count flag: enough cells to score; call: inactive

For Shb, how do the results read?
p65 translocation robust z-score: -0.29; nuclear/cytoplasmic p65 ratio, rep 1: 1.48; nuclear/cytoplasmic p65 ratio, rep 2: 1.54; low cell count flag: enough cells to score; call: inactive

How did the screen score Wnt10a?
p65 translocation robust z-score: 0.44; nuclear/cytoplasmic p65 ratio, rep 1: 1.64; nuclear/cytoplasmic p65 ratio, rep 2: 1.65; low cell count flag: enough cells to score; call: inactive

For Cenpq, what was measured?
nuclear/cytoplasmic p65 ratio, rep 1: 1.16; nuclear/cytoplasmic p65 ratio, rep 2: 1.23; low cell count flag: fewer than 50 cells per well; well left out of scoring; call: inactive

What did the screen give for Dcaf11?
p65 translocation robust z-score: -0.59; nuclear/cytoplasmic p65 ratio, rep 1: 1.46; nuclear/cytoplasmic p65 ratio, rep 2: 1.18; low cell count flag: enough cells to score; call: inactive

What did the screen give for Ap4m1?
p65 translocation robust z-score: 3.25; nuclear/cytoplasmic p65 ratio, rep 1: 1.97; nuclear/cytoplasmic p65 ratio, rep 2: 2.08; low cell count flag: enough cells to score; call: inactive

With Cnpy3, how do the results read?
p65 translocation robust z-score: -2.27; nuclear/cytoplasmic p65 ratio, rep 1: 1.27; nuclear/cytoplasmic p65 ratio, rep 2: 1.12; low cell count flag: enough cells to score; call: active

What is on record for Serpina1b?
p65 translocation robust z-score: -0.34; nuclear/cytoplasmic p65 ratio, rep 1: 1.43; nuclear/cytoplasmic p65 ratio, rep 2: 1.58; low cell count flag: enough cells to score; call: inactive

For Cxxc1, what was measured?
nuclear/cytoplasmic p65 ratio, rep 1: 1.82; nuclear/cytoplasmic p65 ratio, rep 2: 1.66; low cell count flag: fewer than 50 cells per well; well left out of scoring; call: inactive

What is on record for Cetn1?
p65 translocation robust z-score: -1.39; nuclear/cytoplasmic p65 ratio, rep 1: 1.29; nuclear/cytoplasmic p65 ratio, rep 2: 1.2; low cell count flag: enough cells to score; call: inactive

For Nktr, what was measured?
p65 translocation robust z-score: -0.53; nuclear/cytoplasmic p65 ratio, rep 1: 1.35; nuclear/cytoplasmic p65 ratio, rep 2: 1.37; low cell count flag: enough cells to score; call: inactive

What did the screen give for Morf4l2?
p65 translocation robust z-score: -0.7; nuclear/cytoplasmic p65 ratio, rep 1: 1.55; nuclear/cytoplasmic p65 ratio, rep 2: 1.59; low cell count flag: enough cells to score; call: inactive

Which result is listed for Eif2s2?
p65 translocation robust z-score: 0.38; nuclear/cytoplasmic p65 ratio, rep 1: 1.48; nuclear/cytoplasmic p65 ratio, rep 2: 1.41; low cell count flag: enough cells to score; call: inactive

What did the screen give for Ppih?
p65 translocation robust z-score: 0.41; nuclear/cytoplasmic p65 ratio, rep 1: 1.42; nuclear/cytoplasmic p65 ratio, rep 2: 1.27; low cell count flag: enough cells to score; call: inactive

Which result is listed for Gapt?
p65 translocation robust z-score: -1.41; nuclear/cytoplasmic p65 ratio, rep 1: 1.26; nuclear/cytoplasmic p65 ratio, rep 2: 1.32; low cell count flag: enough cells to score; call: inactive

Which result is listed for Gtf2h4?
p65 translocation robust z-score: -0.23; nuclear/cytoplasmic p65 ratio, rep 1: 1.44; nuclear/cytoplasmic p65 ratio, rep 2: 1.31; low cell count flag: enough cells to score; call: inactive
